PubChem BioAssay AID1159584 | Peter MacCallum Cancer Centre, 2016
Assay: 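Genes whose loss is lethal only together with E-cadherin loss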 (primary screen). Cell system: human MCF10A breast epithelial cells, parental and CDH1-null. Knock-down reagent: siRNA against human genes. Detection: 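Cell viability by CellTiter-Glo ATP luminescence, each line scaled to the mean of mock wells across plates, then CDH1-null over parental ratio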. Scale: CDH1-null / parental viability ratio: higher = CDH1-null cells survive relatively better than parental; CDH1-null viability vs mock: higher = more viable CDH1-null cells; parental viability vs mock: higher = more viable parental cells.
The deposit covers about 18,000 reagents; shown is a part drawn at random. No sequences are given here. Not stated in the record: the amount of reagent, the time to read-out.

| gene | CDH1-null / parental viability ratio | CDH1-null viability vs mock (fraction of mock) | parental viability vs mock (fraction of mock) |
| --- | --- | --- | --- |
| ANPEP (alanyl aminopeptidase, membrane) | 1.12 | 0.99 | 0.88 |
| FAM110D (family with sequence similarity 110 member D) | 1 | 0.54 | 0.54 |
| ATP5PO (ATP synthase peripheral stalk subunit OSCP) | 0.9 | 0.99 | 1.1 |
| SERPINA9 (serpin family A member 9) | 1.12 | 1.18 | 1.05 |
| HCRTR2 (hypocretin receptor 2) | 0.85 | 0.97 | 1.14 |
| FANCB (FA complementation group B) | 0.88 | 0.71 | 0.81 |
| PCTP (phosphatidylcholine transfer protein) | 1 | 0.5 | 0.5 |
| SNRPC (small nuclear ribonucleoprotein polypeptide C) | 0.91 | 0.5 | 0.55 |
| ATP6V1B1 (ATPase H+ transporting V1 subunit B1) | 0.85 | 0.66 | 0.78 |
| PCMTD2 | 1.03 | 1.05 | 1.02 |
| SERPINB11 (serpin family B member 11) | 1.25 | 0.9 | 0.72 |
| CCDC54 (coiled-coil domain containing 54) | 1.07 | 0.88 | 0.82 |
| ZKSCAN8 (zinc finger with KRAB and SCAN domains 8) | 0.98 | 0.52 | 0.53 |
| CH25H (cholesterol 25-hydroxylase) | 0.98 | 0.9 | 0.92 |
| RPL19 (ribosomal protein L19) | 1.31 | 0.38 | 0.29 |
| OTP (orthopedia homeobox) | 0.87 | 0.82 | 0.94 |
| RAB3A (RAB3A, member RAS oncogene family) | 1.06 | 1.07 | 1.01 |
| SLC23A2 | 0.96 | 0.96 | 1 |
| CDNF (cerebral dopamine neurotrophic factor) | 0.84 | 0.76 | 0.91 |
| CFL2 (cofilin 2) | 0.88 | 0.66 | 0.75 |
| NDUFB7 (NADH:ubiquinone oxidoreductase subunit B7) | 0.68 | 0.54 | 0.79 |
| SRCIN1 (SRC kinase signaling inhibitor 1) | 0.73 | 0.44 | 0.6 |
| WFIKKN2 | 1.31 | 0.76 | 0.58 |
| ELP2 (elongator acetyltransferase complex subunit 2) | 0.81 | 0.78 | 0.96 |
| PHLDA1 (pleckstrin homology like domain family A member 1) | 1.16 | 1.02 | 0.88 |
| TOPORS | 0.94 | 0.9 | 0.96 |
| NHLRC4 (NHL repeat containing 4) | 1.44 | 0.89 | 0.62 |
| WNT10A (Wnt family member 10A) | 0.87 | 0.62 | 0.71 |
| FGF2 (fibroblast growth factor 2) | 1 | 1 | 1 |
| PRB2 (proline rich protein BstNI subfamily 2) | 0.97 | 0.68 | 0.7 |
| TMEM167B (transmembrane protein 167B) | 0.9 | 0.85 | 0.94 |
| ARMC3 (armadillo repeat containing 3) | 1.07 | 0.97 | 0.91 |
| BEX2 (brain expressed X-linked 2) | 0.81 | 0.5 | 0.62 |
| ZBED1 (zinc finger BED-type containing 1) | 1.21 | 0.8 | 0.66 |
| PGK2 (phosphoglycerate kinase 2) | 1.08 | 0.84 | 0.78 |
| CYP4F12 (cytochrome P450 family 4 subfamily F member 12) | 0.95 | 0.98 | 1.03 |
| NOS2 (nitric oxide synthase 2) | 0.93 | 0.93 | 1 |
| EXTL2 (exostosin like glycosyltransferase 2) | 0.94 | 0.89 | 0.95 |
| CCAR2 (cell cycle and apoptosis regulator 2) | 0.88 | 0.66 | 0.75 |
| TAS2R13 (taste 2 receptor member 13) | 1.35 | 1.09 | 0.81 |
| SLC41A1 | 0.67 | 0.66 | 0.98 |
| PATZ1 (POZ/BTB and AT hook containing zinc finger 1) | 1.05 | 0.45 | 0.43 |
| CCNQ (cyclin Q) | 0.6 | 0.42 | 0.7 |
| TMEM131L (transmembrane 131 like) | 1.11 | 0.98 | 0.88 |
| EN1 (engrailed homeobox 1) | 0.8 | 0.64 | 0.8 |
| ANKAR (ankyrin and armadillo repeat containing) | 1.19 | 0.81 | 0.68 |
| CKS1B (CDC28 protein kinase regulatory subunit 1B) | 1.05 | 0.8 | 0.76 |
| ARHGEF12 (Rho guanine nucleotide exchange factor 12) | 0.93 | 0.79 | 0.85 |
| CHSY1 (chondroitin sulfate synthase 1) | 1.08 | 1.1 | 1.02 |
| SEC62 (SEC62 preprotein translocation factor) | 1 | 0.57 | 0.57 |
| C4orf51 (chromosome 4 open reading frame 51) | 0.89 | 0.5 | 0.56 |
| PCDHB10 (protocadherin beta 10) | 1.07 | 1.16 | 1.08 |
| XPO4 (exportin 4) | 1.32 | 0.5 | 0.38 |
| PUSL1 (pseudouridine synthase like 1) | 1.01 | 1.06 | 1.05 |
| MEGF9 (multiple EGF like domains 9) | 1.08 | 1.06 | 0.98 |
| ASIC2 (acid sensing ion channel subunit 2) | 1.19 | 1.02 | 0.86 |
| ADAM11 (ADAM metallopeptidase domain 11) | 1.24 | 1.07 | 0.86 |
| CENPI (centromere protein I) | 0.89 | 0.82 | 0.92 |
| RINT1 (RAD50 interactor 1) | 0.81 | 0.47 | 0.58 |
| PAX3 (paired box 3) | 1.17 | 1.08 | 0.92 |
| ITPRIP (inositol 1,4,5-trisphosphate receptor interacting protein) | 1.15 | 1.15 | 1 |
| KIAA1755 | 0.97 | 0.6 | 0.62 |
| AGTR1 (angiotensin II receptor type 1) | 0.84 | 0.92 | 1.1 |
| PALMD (palmdelphin) | 1 | 0.81 | 0.81 |
| STRAP (serine/threonine kinase receptor associated protein) | 0.74 | 0.55 | 0.74 |
| ITGB8 (integrin subunit beta 8) | 0.52 | 0.3 | 0.58 |
| XKR5 (XK related 5) | 0.95 | 0.7 | 0.74 |
| MON1B (MON1 vesicular trafficking associated B) | 1.05 | 0.86 | 0.82 |
